According to PubChem BioAssay AID1439 (NMMLSC, 2008):
The campaign covered roughly 220,000 compounds. About 770 (0.35%) were called active. Inconclusive means that the source gave no clear call. Such entries were picked first, then a sample of the others. Rule as the data show it: active = binding response below about 49% or above about 150%; inconclusive = no clear call, values can overlap the other calls; inactive = in between.

The chains behind the UniProt entries cited, without tags or fusion partners.
UniProt P09471, whole entry, looked up: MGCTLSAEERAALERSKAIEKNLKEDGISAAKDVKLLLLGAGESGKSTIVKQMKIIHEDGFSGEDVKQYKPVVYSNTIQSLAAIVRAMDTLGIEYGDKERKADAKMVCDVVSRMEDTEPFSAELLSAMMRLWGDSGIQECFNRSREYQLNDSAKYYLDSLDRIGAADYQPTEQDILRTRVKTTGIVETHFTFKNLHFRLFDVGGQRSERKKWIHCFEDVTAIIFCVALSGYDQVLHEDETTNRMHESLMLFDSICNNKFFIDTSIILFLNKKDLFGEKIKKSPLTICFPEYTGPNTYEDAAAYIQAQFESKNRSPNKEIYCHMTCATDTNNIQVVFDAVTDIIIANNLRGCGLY

Molecular target: Guanine nucleotide-binding protein G(o) subunit alpha (Homo sapiens) (UniProt P09471)
Assay: RGS7-Galphao binding modulators, primary screen, biochemical, multiplexed bead flow cytometry (AID 1439);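 also: fluorescent Galphao held in activated GDP-AlF4 state binding bead-coupled RGS7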
Conditions: at 10 µM, actives lie on both sides

Row | Structure (SMILES) | binding response (% of control)
1 | COc1ccc(C(=O)NC(=S)Nc2ccc(S(=O)(=O)Nc3cc(C)on3)cc2)cc1OC | inconclusive: 99.5%
2 | O=C1c2cccc(Sc3ccccc3)c2C(=O)c2c(Sc3ccccc3)cccc21 | inconclusive: 136%
3 | COC(=O)CCSC(=S)N1CCOCC1 | inconclusive: 754%
4 | CO/N=C1\CCn2c1c(C)c1ccccc12 | inconclusive: 98.1%
5 | S=C(Nc1ccccc1)Nc1ccccc1-n1cccc1 | inconclusive: 57.9%
6 | COc1ccc(C(=O)C(C)[n+]2ccc(-c3nnc4n3CCCCC4)cc2)cc1 (stereo not drawn) | inconclusive: 99.4%
7 | CC(=O)Nc1nnc(-c2c(-c3ccccc3Cl)noc2C)o1 | inconclusive: 146%
8 | COC(=O)c1ccc(NC(=O)CN2CCN(c3ccccn3)CC2)cc1 | inactive: 105%
9 | CS(=O)(=O)c1nc(S(=O)(=O)c2ccc(Cl)cc2)c(NCc2ccccn2)s1 | inactive: 101%
10 | CC(C)(CN1CCN(Cc2ccccc2)CC1)NS(=O)(=O)c1ccccc1 | inconclusive: 92.4%
11 | CCc1cccc(C)c1NC(=O)CC(C)(C)CC(=O)O | inconclusive: 115%
12 | CS(=O)(=O)c1ccc2nc(NC(=O)c3ccc(N4C(=O)CCC4=O)cc3)sc2c1 | inconclusive: -186%
13 | Cc1nn(-c2ccc(F)cc2F)c(=O)c2noc(C)c12 | inconclusive: 118%
14 | CCn1c(SCC(=O)Nc2ccc(C)cc2)nnc1-c1ccccn1 | inconclusive: 147%
15 | NC1=NC[C@@H](Cc2ccc(O)cc2)N1CCc1cccc(F)c1 | inconclusive: 66.9%
16 | CC(C)(C)c1ccc(OC(=O)Nc2ccc(O)c(C(=O)O)c2)cc1 | inconclusive: 109%
17 | CCCN1CCC(=O)N([C@H](CSc2ccc(OC)cc2)Cc2ccccc2)CC1 | inconclusive: 45.9%
18 | CCN1CCN(C(CNS(=O)(=O)c2cccs2)c2cccnc2)CC1 (stereo not drawn) | inconclusive: 103%
19 | CCCC(=O)OC(C(=O)Nc1cc(C(F)(F)F)ccc1Cl)c1ccccc1 (stereo not drawn) | inactive: 107%
20 | c1ccc(CSc2nnc(-c3ccco3)o2)cc1 | inconclusive: 163%
21 | O=c1[nH]c(N/N=C/c2cc3c(cc2[N+](=O)[O-])OCO3)nc2ccccc12 | inconclusive: 59.8%
22 | Cc1ccnc(NC(=O)CCC(=O)N(CC(=O)NCCc2ccccc2)Cc2cccs2)c1 | inconclusive: 108%
23 | CN(C)CCCNC(=O)c1ccc(/C=N/O)nc1 | active: -11.2%
24 | CN(C)CCNc1oc(-c2cccc(Cl)c2)nc1C#N | active: 12.5%

Row | Structure (SMILES) | binding response (% of control)
25 | CN(NC(=O)Nc1ccccc1)c1cnn(C)c(=O)c1Cl | inconclusive: 12.3%
26 | COc1cc(/C=C/C(=O)O)cc(S(=O)(=O)N2CCCc3ccccc32)c1OC | inconclusive: 99.6%
27 | COc1ccc(-c2nc(=S)c3c(n2Cc2cccnc2)CC(C)(C)OC3)cc1 | inconclusive: 102%
28 | CCCc1c(C(=O)OCC)sc(N)c1C#N | inconclusive: 98.5%
29 | CCc1cccc2c(-c3csc(=NC)n3C)c[nH]c12 | inactive: 106%
30 | O=C(Nc1ccccc1N1CCCCC1)c1cnccn1 | inconclusive: 116%
31 | COC(=O)c1cc(NC(C)=O)ccc1N1CCOCC1 | inconclusive: 124%
32 | Cc1c(C(=O)/C=C/N(C)C)nnn1-c1ccc(F)c(Cl)c1 | inconclusive: 103%
33 | COc1cc(OC)c(OC)cc1/C=N/n1c(-c2n[nH]c3c2CCC3)n[nH]c1=S | inconclusive: 256%
34 | CCC(CO)N=CC1=C(O)C(C(=O)c2ccccc2)CCC1=O (stereo not drawn) | inactive: 98.3%
35 | O=S(=O)(c1cnc(Cl)c(Br)c1)N1CCc2ccccc21 | inconclusive: 87.3%
36 | O=C(NC1CCCCCC1)c1cc(=O)[nH]c2ccc(S(=O)(=O)N3CCOCC3)cc12 | inconclusive: 105%
37 | Cc1nnc(SCC(=O)c2ccc(C(C)C)cc2)s1 | inactive: 102%
38 | Cc1nn(-c2ccc(Cl)cc2Cl)c(C)c1C(=O)O | inconclusive: 73.5%
39 | CN1CCN(c2ccc(NC(=O)c3ccc4c(c3)OCCO4)cc2)CC1 | inconclusive: 77.8%
40 | COc1ccc2nc3ccccc3nc2c1N | inconclusive: 116%
41 | Cn1c(CN2CCN(C(=O)c3ccc(F)cc3)CC2)nc2cc([N+](=O)[O-])ccc21 | inactive: 107%
42 | O=C(O)/C=C/C(=O)Nc1ccc(Oc2ncnc3cc(Cl)ccc23)nc1 | inconclusive: 113%
43 | O=C1OCc2ccc(NC(=O)c3sccc3Cl)cc21 | inconclusive: 75.4%
44 | O=C(N/N=C/c1ccc(OC(F)F)cc1OC(F)F)NC1CCCCC1 | inconclusive: 106%
45 | O=C(C1CC1)N1CCc2sccc2C1c1ccc(Cl)cc1 (stereo not drawn) | inconclusive: 99.5%
46 | CCOc1ccc(C2=Nn3c(nnc3-c3ccccc3OC)SC2)cc1 | inactive: 99.5%
47 | CCOc1ccc(-n2c(C)cc(/C=N/Nc3nc(C)cc(=O)[nH]3)c2C)cc1 | inconclusive: 164%
48 | O=C(Nc1ccc(F)cc1F)NC1CCN(Cc2c(F)cccc2Cl)CC1 | inconclusive: 712%

Row | Structure (SMILES) | binding response (% of control)
49 | O=S(=O)(c1cccc(-c2n[nH]c(=S)n2Cc2ccccc2)c1)N1CCOCC1 | inconclusive: 323%
50 | CC(/C=C/C=C/c1ccccc1)=N/NC(=O)C(O)c1ccccc1 (stereo not drawn) | inconclusive: 110%
51 | COc1ccc(NC(=O)c2cncc(Br)c2)cc1S(N)(=O)=O | inactive: 90.2%
52 | c1cnc2c(c1)ccc1cccnc12 | inconclusive: 85.5%
53 | COc1ccc(Oc2c(C)nc(SCC(=O)c3ccc(Cl)cc3)[nH]c2=O)cc1 | inconclusive: 106%
54 | O=C(COC(=O)c1ccc(O)cc1)Nc1ccc(Cl)cc1 | inconclusive: 89.8%
55 | COc1ccccc1C(=O)C1CCCN(C(=O)c2cccnc2SC)C1 (stereo not drawn) | inactive: 98.5%
56 | CCOc1ccc(NC(=O)CC2C(=O)N(c3cccc(OC)c3)C(=O)N2CCOC)cc1 (stereo not drawn) | inconclusive: 93.7%
57 | C(=C\c1ccccc1)/CSc1nc2ncccc2[nH]1 | inconclusive: 86.2%
58 | CC(C)CCN1CCN(CC#Cc2ccccc2)CC1CCO (stereo not drawn) | inactive: 105%
59 | O=C(Nc1ccc(CN2CCCCC2)cc1)c1cccc(F)c1 | inconclusive: 119%
60 | COC(=O)/C=C1\N/C(=N\c2nc(C)cc(C)n2)N(c2ccc(Cl)cc2)C1=O | inconclusive: 67.5%
61 | CCN(CC)c1nc(-c2ccccn2)nc(-c2ccccc2)c1C#N | inactive: 89.1%
62 | CCN(CC)CCN(C(=O)CCOc1ccccc1)c1nc2c(F)cc(F)cc2s1 | inconclusive: 116%
63 | Cc1ccc(S(=O)(=O)N2CCC(C(=O)OC(C)C(=O)NC(N)=O)CC2)cc1C (stereo not drawn) | inconclusive: 79.2%
64 | CC(=O)Nc1ccc(N(C(=O)CNC(=O)c2ccco2)C(C(=O)NCc2ccco2)c2ccccc2)cc1 (stereo not drawn) | inconclusive: 119%
65 | CC(C)(C)OC(=O)C(C)(C)Sc1nnc(N)s1 | inconclusive: 147%
66 | NC(N)=N/N=C/c1ccc2cccc(OCc3ccccc3)c2n1 | inconclusive: 61.2%
67 | Cc1onc(-c2c(F)cccc2Cl)c1C(=O)NC(=S)Nc1c(C)n(C)n(-c2ccccc2)c1=O | inconclusive: 95.3%
68 | O=C(c1cc2c(s1)-c1ccccc1S(=O)(=O)C2)N1CCN(Cc2ccccc2)CC1 | active: 276% [activator]
69 | CC1CC(C)CN(C(=S)SCc2nc(N)nc(Nc3ccccc3)n2)C1 (stereo not drawn) | inconclusive: 144%
70 | COc1cc(C(=O)C(=O)c2ccc(O)c(OC)c2)ccc1O | inconclusive: 192%
71 | Cc1ccc(-n2cc(CNCC3CC(=O)N(C4CC4)C3)c(-c3cccc(C)c3)n2)cc1 (stereo not drawn) | inactive: 107%
72 | O=[N+]([O-])c1ccccc1OCC(O)CNC1CCCC1 (stereo not drawn) | inconclusive: 108%

Row | Structure (SMILES) | binding response (% of control)
73 | CCc1ccc(OCc2cnc(Cl)s2)cc1 | inactive: 100%
74 | C/C(=N\Nc1nc2ccccc2[nH]1)c1ccc(N2CCOCC2)cc1 | inactive: 107%
75 | O=C(NC1CC1)C1=C[C@H](c2c[nH]c3ccccc23)C[C@H](OCCCCO)O1 | inconclusive: 109%
76 | O=C(C1CCN(S(=O)(=O)c2ccc(Cl)cc2)CC1)N1CCOCC1 | inactive: 99.1%
77 | Cc1ccc(Cn2cccc2/C=N/NC(=S)Nc2ccc(C)cc2)cc1 | inconclusive: 94.7%
78 | CCOC(=O)Cc1csc(NC(=O)c2sc3nc4c(C)cc(C)cc4cc3c2N)n1 | inactive: 96.7%
79 | Cc1ccc2nc(N=C(N)N)nc(C)c2c1 | inconclusive: 108%
80 | O=C(CSc1nc2ccccc2s1)NC1CCCC1 | inconclusive: 83%
81 | CC1(OC(=O)C2CCCC2)C(=O)C=C2C=C(c3ccsc3)N(c3ccccc3)C=C2C1=O (stereo not drawn) | inconclusive: 28.2%
82 | COC(C[C@@H]1O[C@H]1[C@@H](O)[C@@H](C)OCc1ccccc1)OC | inconclusive: 108%
83 | COc1ccc(S(=O)(=O)Nc2cc3c(cc2C(C)=O)OCO3)cc1 | inactive: 100%
84 | COCC(=O)N1CCN(c2nc3ccccc3o2)CC1 | inactive: 96.7%
85 | CN(C)C(=O)c1coc2nc3ccccc3nc12 | inconclusive: 176%
86 | O=C(CO/N=C/c1c(Cl)cccc1Cl)NNC(=O)c1cccc(Cl)c1 | inconclusive: 100%
87 | Nc1ncc2c(n1)-c1ccccc1CC2 | inconclusive: 117%
88 | COc1ccc(/C=C/C(=O)OCCCN(C)C)cc1 | inconclusive: 113%
89 | CC(C)(O)CCCC(C)(O)c1ccc(C(=O)O)cc1O (stereo not drawn) | inconclusive: 140%
90 | O=C1NNC(c2ccccc2)=N/C1=C\c1ccccc1 | inconclusive: -84.4%
91 | O=C(N/N=C/C=C/c1ccccc1)NC1CCCCC1 | inconclusive: 106%
92 | Cc1nc(C2CCC3C4CCC5=CC(=O)CC[C@]5(C)C4CC[C@]23C)cs1 (stereo partly drawn) | inconclusive: 107%
93 | Cc1ccccc1NC(=O)CN1C(=O)S/C(=C\c2ccc(-c3cccc(C(=O)O)c3C)o2)C1=O | inconclusive: 79.1%
